# The campaign covered roughly 390,000 compounds. About 610 (0.16%) were called active. The shares of active, inactive and inconclusive entries below differ from those in the screen. Calls follow the shape of the dose curve; as a rule, active = well fitted inhibition curve with a large enough effect; inconclusive = small, poorly fitted or top-dose-only effect, or effect the other way, or another doubt; inactive = no such curve, though single readings can be large or run the other way. Potencies beside an inconclusive call are fits to weak or partial responses and may not hold up.
# Experiment: Nrf2 qHTS screen for inhibitors: counterscreen for cytotoxicity
# Conditions: A549 ARE-Fluc cells, CellTiter-Fluor viability, 18-24 h; activity change, negative = cytotoxicity: at 46 µM (top of the series)
# Method in brief: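 A549 ARE_Fluc cells in 5% FBS OPTI-MEM were exposed to compounds in concentration-response for 18-24 h at 37 deg C. Viability was read by CellTiter-Fluor fluorescence (Ex 405/Em 525) after 30 min, before the luciferase read.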
# % is scaled to controls: 0 for no effect and ±100 for the full control effect; potency is read from the fitted curve at half-maximal effect.
Compound,Potency,"activity change, negative = cytotoxicity"
CCOC(=O)NC1(NC2CCCCC2)Oc2ccccc2O1,"inconclusive: 20.6 µM [falling, single point]",
CC1(C)[N+]([O-])=C2C(=[N+]([O-])C1(C)C)c1ccccc1/C2=N\O,,inactive: -6.78%
O=C(C(=O)N1CCc2ccccc2C1)c1c[nH]c2ccccc12,"inconclusive: 3.26 µM [activator, full curve, poor fit]",
CCOC(=O)C1=C(N)n2c(s/c(=C/c3ccco3)c2=O)=C(C(=O)OC)C1c1ccco1 (stereo not drawn),"inconclusive: 29.1 µM [falling, single point]",
S=C(Nc1cc(Cl)cc(Cl)c1)NC1CCN(Cc2ccccc2)CC1,"inconclusive: 18.4 µM [falling, single point]",
CCCCCn1ccc(=N)cc1,"inconclusive: 4.11 µM [falling, partial curve, poor fit]",
CCOc1ccc(-c2noc(CSc3nnc(Cc4ccccc4)n3-c3cccc(C)c3)n2)cc1,"inconclusive: 29.1 µM [falling, partial curve, poor fit]",
COc1ccc(NC(=O)NC(C)c2c(-n3cccc3)sc3c2CCN(C)C3)c(OC)c1 (stereo not drawn),,inactive: -6.74%
CCOC(=O)Cn1c(=O)n(Cc2ccc(C)cc2)c(=O)c2cccnc21,"inconclusive: 5.8 µM [activator, partial curve, poor fit]",
O=C1/C(=C/c2ccco2)SC(=S)N1C1CCS(=O)(=O)C1 (stereo not drawn),"inconclusive: 20.6 µM [falling, partial curve]",
Cn1c(=O)c(C(=O)NNC(=O)c2cccc(Cl)c2)c(O)c2ccccc21,"inconclusive: 23.1 µM [falling, partial curve, poor fit]",
COc1ccccc1C(=O)NCCC(=O)Nc1ccc(S(=O)(=O)Nc2ncccn2)cc1,,inactive: -3.34%
Cc1ccc(-c2csc3nc(SCC(N)=O)n(Cc4ccccc4)c(=O)c23)cc1,"inconclusive: 32.6 µM [falling, partial curve, poor fit]",
CC(=O)Nc1nonc1-c1nc2ccccc2n1Cc1ccccc1Br,,inactive: -11.3%
O=C(NCc1cccc(Cl)c1)C1CCCN(c2ncnc3onc(-c4ccc(F)cc4)c23)C1 (stereo not drawn),,inactive: -1.86%
Cc1ccc(OCC(=O)NC2CCSc3ccccc32)cc1 (stereo not drawn),"inconclusive: 23.1 µM [activator, partial curve, poor fit]",
CCCCNC(=S)N1CCC(Cc2ccccc2)CC1,"inconclusive: 23.1 µM [falling, partial curve, poor fit]",
COc1ccc(C[C@H]2CN3C(=NC[C@H]3Cc3ccccc3)N2CCNC(=O)c2ccc(C)c(Br)c2)cc1,"inconclusive: 20.6 µM [falling, single point]",
CCCCOC(=O)c1ccc(NC(=O)/C(C#N)=C/c2ccc(-c3ccccc3)o2)cc1,,inactive: -13.4%
CCC(C)(C)c1ccc(OCCCC[n+]2cccc(C)c2C)c(C(C)(C)CC)c1,active: 11.6 µM,
COc1ccc(S(=O)(=O)c2ccc(OC)c(OC)c2)cc1OC,,inactive: 8.23%
COc1ccc(C2C=C3CNS(=O)(=O)C3CC2OC(=O)c2ccc(Cl)cc2)cc1 (stereo not drawn),,inactive: -1.67%

Compound,Potency,"activity change, negative = cytotoxicity"
O=C(NCC1CCCO1)C1CCCN1C(=O)Nc1ccccc1[N+](=O)[O-] (stereo not drawn),"inconclusive: 5.8 µM [falling, partial curve, poor fit]",
CC(=O)NC/C(C)=N\Nc1ccc([N+](=O)[O-])cc1,"inconclusive: 9.2 µM [falling, partial curve, poor fit]",
Cc1ccc(C)c(NC(=O)Cn2c(=O)n(Cc3cccs3)c(=O)c3cccnc32)c1,,inactive: -5.03%
Nc1c(C(=O)Nc2ccc(Cl)cc2F)sc2nc(-c3cccs3)ccc12,"inconclusive: 23.1 µM [activator, partial curve, poor fit]",
c1coc(C2Nc3ccccc3-c3nc4ccccc4n32)c1 (stereo not drawn),"inconclusive: 6.51 µM [falling, single point]",
Cn1c(=O)c([N+](=O)[O-])c(-n2ccnc2)c2ccccc21,"inconclusive: 16.4 µM [falling, single point]",
Cc1onc(C(=O)N2CCN(c3ccccc3F)CC2)c1-c1ccccc1Cl,"inconclusive: 10.3 µM [activator, partial curve, poor fit]",
CCN(CC)CCn1c2c(c(SCC(=O)Nc3ccc4c(c3)OCCO4)nc1=O)CCCC2,,inactive: 0.924%
Cc1ccc(NC(=O)C2CCN(S(=O)(=O)c3ccc(N4CCCC4=O)cc3)CC2)cc1Cl,,inactive: -5.44%
CCn1nc(C)c(C(=O)Nc2cc(Oc3cc(C)cc(C)c3)cc([N+](=O)[O-])c2)c1C,"inconclusive: 29.1 µM [falling, single point]",
COc1ccc(N2CCN(C(=O)CCCN3C(=O)c4cccc5cccc(c45)C3=O)CC2)cc1,"inconclusive: 2.06 µM [activator, partial curve, poor fit]",
COCc1ccc(-c2c(-c3ccc(OC)cc3)oc(=O)c3cc(OC)c(OC)cc23)cc1,,inactive: 6.52%
O=C(COC(=O)CCCN1C(=O)c2cccc3cccc(c23)C1=O)Nc1cccc(Br)c1,,inactive: -5.18%
O=C(Cn1c(=O)nc(-c2ccccc2)c2cc(Cl)ccc21)NCCCc1ccccc1,"inconclusive: 32.6 µM [falling, partial curve, poor fit]",
COc1cc(/C=C/C=C2/CC/C(=C/C=C/c3ccc(O)c(OC)c3)C2=O)ccc1O,"inconclusive: 23.1 µM [falling, single point]",
Cc1ccc(C)c(CSc2nc3ccncc3n2Cc2nc(-c3ccccc3Cl)oc2C)c1,"inconclusive: 29.1 µM [falling, single point]",
CCOc1cccc(NC(=O)C2CCCN(S(=O)(=O)c3ccc(OC)cc3)C2)c1 (stereo not drawn),"inconclusive: 18.4 µM [falling, single point]",
Cc1ccc(Oc2coc3cc(O)ccc3c2=O)cc1,,inactive: 1.2%
COc1ccc(C(=O)C[n+]2cn(C(F)F)c3ccccc32)c(F)c1,,inactive: 8.9%
CSc1cc(-c2ccccc2)n(Cc2ccccc2Cl)c(=O)c1C#N,"inconclusive: 7.31 µM [falling, partial curve]",
O=C1CCCC(O)=C1N=Nc1c(Cl)cc(Cl)cc1Cl,,inactive: -4.66%

# 3 structures from above, arranged by heavy-atom count, ascending.
Compound,Potency,"activity change, negative = cytotoxicity"
Cc1ccc(Oc2coc3cc(O)ccc3c2=O)cc1,,inactive: 1.2%
Cc1onc(C(=O)N2CCN(c3ccccc3F)CC2)c1-c1ccccc1Cl,"inconclusive: 10.3 µM [activator, partial curve, poor fit]",
COCc1ccc(-c2c(-c3ccc(OC)cc3)oc(=O)c3cc(OC)c(OC)cc23)cc1,,inactive: 6.52%

# From PubChem BioAssay AID504648 (National Center for Advancing Translational Sciences (NCATS), 2011)
